In patent US12461078B2, “Compounds for use in system suitability testing of inert LC systems and columns” (priority 2020, dated 2025):

Tests used:
[1] = Flow injection test of AMPcP (no column), LC with ethylene bridged hybrid surfaces versus MP35N flowpath (FIG. 2)
[2] = Flow injection of AMPcP and caffeine on fully inert HST LC system versus partially inert system with one MP35N part (FIG. 6)
[3] = metallic MP35N flowpath versus ethylene bridged hybrid surfaces, 6 replicate injections, 0.5 mL/min 80:20 acetonitrile:water
[4] = fully inert system, 0.5 mL/min 80:20 acetonitrile:water
[5] = partially inert system (one MP35N part)
[6] = partially inert system (one MP35N part, ~40% of flow path surface area)
[7] = partially versus fully inert system

Row | SMILES | peak area RSD ([1]; LC equipped with ethylene bridged hybrid (HST) surface technology) | peak area RSD ([1]; metal-based biocompatible (MP35N) system) | lower average peak area [1, 3] | lower average peak height [1, 3] | average peak height ([2]; fully inert system) | peak area ratio between AMPcP and caffeine ([2]; fully inert system) | average peak area [2, 4] | peak area ratio between AMPcP and caffeine ([2]; partially inert system) | average peak height [2, 5] | average peak area [2, 6] | decrease in average peak area [2, 7] | decrease in average peak height [2, 7]
1 | Nc1ncnc2c1ncn2[C@@H]1O[C@H](COP(=O)(O)CP(=O)(O)O)[C@@H](O)[C@H]1O [AMPcP, Adenosine 5′-(α, β-methylene)diphosphate] | 0.4% | 6.4% | 48% | 47% | 34400 μAU | 1.1 | 18000 μAU*sec | 0.79 | 18100 μAU | 12900 μAU*sec | 28% | 47%
2 | Cn1c(=O)c2c(ncn2C)n(C)c1=O [caffeine] | – | – | – | – | 32000 μAU | – | 16100 μAU*sec | – | 32800 μAU | 16300 μAU*sec | – | –
